# Reference: PubChem BioAssay AID2685 (National Center for Advancing Translational Sciences (NCATS), 2010)
# The list shows a part of the results. Further columns of the screen follow, without active or inactive calls. Most of these compounds were active or inconclusive in the main read-out, so they are no random draw. Potencies come from curve fits of mixed quality, noted in brackets.
# Assay: qHTS Assay for Lipid Storage Modulators in Drosophila S3 Cells;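 on cell number change: cells counted by Cell Tracker Red CMTPX staining in the red channel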
# Settings: BODIPY lipid droplet fluorescence, 18-24 h; for cell number change: measured here: cell count max response, cells fed with added oleic acid
# Outline: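 Laser-scanning cytometry quantifies lipid droplet accumulation (500–530 nm total intensity; droplet/cell object ratio) in oleic acid-fed (400 uM added) Drosophila S3 cells treated with a concentration series. 20 uM Triacsin C defined 100% inhibition.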
# [1] = measured here: lipid fluorescence (Fed channel) AC50, cells fed with added oleic acid
# [2] = measured here: cell number channel AC50, cells fed with added oleic acid
Structure (SMILES),cell number change,AC50 [1],AC50 [2]
O=C(NCc1ccccn1)C(=O)NCC1OCCN1S(=O)(=O)c1ccc([N+](=O)[O-])cc1 (stereo not given),23.3%,"0.116 µM [rising, full curve, poor fit]",–
O=C(NNC(=O)c1ccc2c(=O)n3c(nc2c1)CCC3)c1ccc(Cl)cc1,-0.0627%,–,–
O=[N+]([O-])c1ccc(O)c(/C=N/n2c(-c3ccccc3)n[nH]c2=S)c1,-11.3%,"6.51 µM [rising, single point]",–
COc1ccc(N2CCN(C(=O)CSc3nnc(-c4cccnc4)n3-c3ccccc3)CC2)cc1,–,"0.0731 µM [falling, single point]","0.82 µM [rising, full curve, poor fit]"
O=C(CN(CC1CCCO1)C(=O)CNS(=O)(=O)c1ccc(F)cc1)NCc1ccc(F)cc1 (stereo not given),14.1%,–,–
CCN(CC)S(=O)(=O)c1cccc(NC(=O)COc2ncnc3sccc23)c1,65.8%,"3.26 µM [rising, single point]","18.4 µM [rising, partial curve]"
Cc1ccc(S(=O)(=O)NCC(=O)NCC(=O)NCCc2ccccc2F)cc1C,8.53%,"0.82 µM [rising, full curve, poor fit]",–
O=C(Cc1ccc(Br)cc1)N/N=C/c1ccc(-c2cccc(C(=O)O)c2)o1,9.01%,"0.366 µM [rising, single point]",–
COc1ccc(/C=C/C2=NC(=C\N(C)C)/C(=O)O2)cc1,-22%,"16.4 µM [falling, single point]",–
NS(=O)(=O)c1ccc(CNC(=O)c2cc(-c3cccs3)nc3ccccc23)cc1,-3.84%,–,–
CO/N=C(/CNC(=O)c1ccc(Cl)cc1Cl)c1ccc(Cl)cc1,–,"0.461 µM [rising, full curve, poor fit]",–
Cc1ccccc1OCC(=O)Nc1ccc(C(=O)Nc2ccccc2C(=O)O)cc1,31.4%,"5.8 µM [rising, full curve]",–
CCCCN(C(=O)CCSc1ccc(F)cc1)c1c(N)n(Cc2ccccc2)c(=O)[nH]c1=O,–,"0.517 µM [falling, full curve, poor fit]",–
C=CCO/N=C(/C)c1ccc(Oc2cnccn2)cc1,39%,–,"20.6 µM [rising, single point]"
Cc1cccc(S(=O)(=O)NCCc2cn3ccccc3n2)c1,24.4%,"29.1 µM [falling, single point]","0.164 µM [rising, full curve, poor fit]"
O=C(CCN1CCN(c2ccc(Cl)cc2)CC1)Nc1ccccc1F,-0.99%,"0.092 µM [rising, full curve, poor fit]",–
O=C1N(c2cccc3ccccc23)C(c2ccccc2)N2CCCN12 (stereo not given),82.8%,"29.1 µM [rising, single point]","23.1 µM [rising, single point]"
CN(CC(=O)Nc1ccccc1Cl)C(=O)COC(=O)c1cnccn1,-40.5%,–,"29.1 µM [falling, single point]"
CCOc1ccc2c(c1)c1nnc(SCC3CCCO3)nc1n2C (stereo not given),-13.8%,–,–
COc1cc(C(=O)NCC(=O)N/N=C/c2ccc(-c3ccc([N+](=O)[O-])cc3)o2)cc(OC)c1OC,27.7%,"29.1 µM [rising, single point]",–

# Of the compounds above, these contain an aryl thioether with sulfur outside any ring:
Structure (SMILES),cell number change,AC50 [1],AC50 [2]
COc1ccc(N2CCN(C(=O)CSc3nnc(-c4cccnc4)n3-c3ccccc3)CC2)cc1,–,"0.0731 µM [falling, single point]","0.82 µM [rising, full curve, poor fit]"
CCCCN(C(=O)CCSc1ccc(F)cc1)c1c(N)n(Cc2ccccc2)c(=O)[nH]c1=O,–,"0.517 µM [falling, full curve, poor fit]",–
CCOc1ccc2c(c1)c1nnc(SCC3CCCO3)nc1n2C (stereo not given),-13.8%,–,–

# Following part:

Structure (SMILES),cell number change,AC50 [1],AC50 [2]
Cc1cc(OCC(=O)Nn2cnnc2)ccc1Br,1.75%,–,–
CCN(CC)S(=O)(=O)c1ccc(N2CCN(c3ccccc3O)CC2)nc1,-31.6%,–,"7.31 µM [falling, partial curve, poor fit]"
O=C(O)CN(c1ccc2c(c1)OCCO2)S(=O)(=O)c1ccccc1,-16%,–,–
Cc1cc(Nc2ccccc2)nc(N)n1,22.4%,"32.6 µM [rising, single point]",–
N#Cc1cc([N+](=O)[O-])ccc1Oc1cccc(/C=N/NC(=O)c2ccc(Cl)cc2)c1,2.71%,–,–
CN(CC(=O)N1CC=C(c2ccccc2)CC1)S(=O)(=O)c1ccc2c(c1)c(=O)n(C)c(=O)n2C,9.4%,"10.3 µM [rising, single point]",–
C=CCn1c(C(CC)CC)nc2ccccc21,29.7%,–,"0.00461 µM [rising, full curve, poor fit]"
Cc1cccc(N2CCN(C(=O)c3cccc(NC4=NC5CS(=O)(=O)CC5S4)c3)CC2)c1C (stereo not given),8.07%,"0.164 µM [falling, full curve, poor fit]",–
O=C(COc1ccccc1Cl)N1CCc2ccccc21,11.7%,"18.4 µM [rising, single point]",–
COc1cccc(C(=O)NNc2c3ccccc3nc3ccccc23)c1,-15.9%,"29.1 µM [falling, single point]",–
O=C(N1CCCC1)n1c(Cc2ccccc2)nc2ccccc21,–,–,"1.16 µM [falling, full curve]"
CCOc1ccc(NS(=O)(=O)c2ccc(C(=O)N(C)CCc3ccc(OC)c(OC)c3)cc2)cc1,-25.7%,–,–
Cc1[nH]n(-c2ccccc2)c(=O)c1C=NCCc1ccccc1,-15.3%,"5.17 µM [falling, single point]",–
CCOC(=O)c1c(NC(=O)COC(=O)c2ccc(C)s2)sc2c1CC(C)(C)NC2(C)C,-34.4%,–,"16.4 µM [falling, single point]"
COc1ccc(C(=O)N[C@H](C(=O)OCn2nnc3ccccc3c2=O)C(C)C)cc1,5.49%,"0.00517 µM [rising, full curve, poor fit]",–
N#CC1=C(Nc2ccccc2Cl)SC(c2ccccc2O)NC1=O (stereo not given),-47.8%,"29.1 µM [falling, single point]","20.6 µM [falling, single point]"
c1ccc(C2CSc3ccccc3N2)cc1 (stereo not given),-39%,"8.2 µM [falling, partial curve]","20.6 µM [falling, single point]"
CC(C)(C)OC(=O)Nc1ccc([C@@H](NC(=O)OC(C)(C)C)C(=O)OC(C)(C)C)cc1,-0.678%,"0.146 µM [rising, single point]",–
CCOC(=O)C1=C(C)N=c2s/c(=C\C(=O)OC)c(=O)n2C1c1ccc(OC)cc1 (stereo not given),-27%,–,–
O=C(O)C(Cc1c[nH]c2ccccc12)NS(=O)(=O)c1ccc(Br)cc1 (stereo not given),-2.7%,"0.0259 µM [falling, full curve, poor fit]",–

Structure (SMILES),cell number change,AC50 [1],AC50 [2]
COc1ccccc1CNC(=O)CN(c1cccc([N+](=O)[O-])c1)S(C)(=O)=O,-37.6%,"1.64 µM [falling, partial curve, poor fit]","2.06 µM [falling, partial curve, poor fit]"
CCCCOc1ccc(C(=O)N/C(=C\c2ccc([N+](=O)[O-])cc2)C(=O)OCc2ccco2)cc1,14.8%,"0.164 µM [falling, full curve]",–
Cc1[nH]c2c(Br)cccc2c1[C@H]1[C@@H](CC#N)C1(C)C,–,"6.51 µM [rising, single point]","6.51 µM [rising, single point]"
COc1cc(C(=O)Nc2c(C(=O)N3CCOCC3)oc3ccccc23)cc(OC)c1OC,7.67%,–,–
COc1cc(C(=S)N2CCOCC2)ccc1OC(=O)c1ccccc1C,-40.9%,–,"10.3 µM [falling, partial curve, poor fit]"
Cc1cc(NC(=O)CCC(=O)N(CC(=O)NC2CCCC2)c2ccc(F)c(Cl)c2)no1,-24.8%,"0.206 µM [rising, single point]",–
CCCC(=O)Nc1nc2ccc(NC(=O)c3c(F)c(F)c(OC)c(F)c3F)cc2s1,-32.9%,–,–
CNC(=S)NNC(=O)c1cccc(N(C)C)c1,-16.5%,"0.1 µM [falling, full curve, poor fit]",–
COc1ccc(C2CC(c3ccc(Br)cc3)Nc3nc(N)nn32)cc1 (stereo not given),30.3%,"29.1 µM [rising, partial curve, poor fit]","1.64 µM [rising, partial curve, poor fit]"
O=C1NC(=O)/C(=C\c2ccccc2OCc2cccc([N+](=O)[O-])c2)N1,1.54%,–,–
Cc1nnc(SCC(=O)NC(=O)NC(C)(C)C)s1,–,"5.8 µM [falling, single point]",–
O=[N+]([O-])c1ccccc1/C=N/N1CCN(c2ccc(Cl)cc2)CC1,9.41%,–,–
COc1ccc(C(=O)/C=C/C(=O)N(Cc2ccc(F)cc2)C(C(=O)NC2CCCCC2)c2ccncc2)c(O)c1 (stereo not given),7.56%,"1.3 µM [rising, full curve]",–
O=C(NCc1nnc(SCC(=O)N2CCCC2)o1)c1ccccc1F,12.2%,"6.51 µM [falling, single point]",–
CCOC(=O)c1c(C)[nH]c(C)c1C(=O)COC(=O)/C=C/c1cccc(C(F)(F)F)c1,-4.1%,–,–
Cc1c(Br)c(C(F)(F)F)nn1CC(=O)N(C)C1CCCCC1,5.13%,"29.1 µM [rising, single point]",–
Cc1sc2ncnc(NCC(C)(C)N3CCOCC3)c2c1C,-29.9%,"6.51 µM [rising, single point]",–
Cc1cc(Oc2cc(NN3CCCCC3)c([N+](=O)[O-])cc2[N+](=O)[O-])c(C(=O)c2ccccc2)cc1Cl,-8.41%,"20.6 µM [falling, single point]",–
CCCCn1c(SCc2cccc([N+](=O)[O-])c2)nc2ccsc2c1=O,9.01%,"4.11 µM [rising, full curve]",–
COc1ccccc1C1NC(=O)NC(C)=C1C(=O)OC1CCC(C)CC1 (stereo not given),-33.4%,"29.1 µM [falling, single point]","23.1 µM [falling, single point]"
